Measurements published in the supplement of paper PMC12823440, “Inhibitors supercharge kinase turnover through native proteolytic circuits” (Nature, 2025).
Counter-ions that a name gives are not always drawn. The list shows a part of the results. The calls rarely recur for the same compound in another form.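 Kinases were expressed as nanoluciferase fusions in K562 cells and luminescence was read every 4 h between 2 and 18 h as percent of control, DMSO set to 100% and a positive control to 0%. A time point counts as decreased when the signal drops significantly (2 sigma). The hit call is the authors' own, does not follow from the count of time points alone, and its rule is not shown.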

By UniProt entry, the sequences of proteins in these tests, tags left out. Where a name states a change or a piece, a line headed by the entry shows the natural chain unless it says otherwise.
UniProt P23458: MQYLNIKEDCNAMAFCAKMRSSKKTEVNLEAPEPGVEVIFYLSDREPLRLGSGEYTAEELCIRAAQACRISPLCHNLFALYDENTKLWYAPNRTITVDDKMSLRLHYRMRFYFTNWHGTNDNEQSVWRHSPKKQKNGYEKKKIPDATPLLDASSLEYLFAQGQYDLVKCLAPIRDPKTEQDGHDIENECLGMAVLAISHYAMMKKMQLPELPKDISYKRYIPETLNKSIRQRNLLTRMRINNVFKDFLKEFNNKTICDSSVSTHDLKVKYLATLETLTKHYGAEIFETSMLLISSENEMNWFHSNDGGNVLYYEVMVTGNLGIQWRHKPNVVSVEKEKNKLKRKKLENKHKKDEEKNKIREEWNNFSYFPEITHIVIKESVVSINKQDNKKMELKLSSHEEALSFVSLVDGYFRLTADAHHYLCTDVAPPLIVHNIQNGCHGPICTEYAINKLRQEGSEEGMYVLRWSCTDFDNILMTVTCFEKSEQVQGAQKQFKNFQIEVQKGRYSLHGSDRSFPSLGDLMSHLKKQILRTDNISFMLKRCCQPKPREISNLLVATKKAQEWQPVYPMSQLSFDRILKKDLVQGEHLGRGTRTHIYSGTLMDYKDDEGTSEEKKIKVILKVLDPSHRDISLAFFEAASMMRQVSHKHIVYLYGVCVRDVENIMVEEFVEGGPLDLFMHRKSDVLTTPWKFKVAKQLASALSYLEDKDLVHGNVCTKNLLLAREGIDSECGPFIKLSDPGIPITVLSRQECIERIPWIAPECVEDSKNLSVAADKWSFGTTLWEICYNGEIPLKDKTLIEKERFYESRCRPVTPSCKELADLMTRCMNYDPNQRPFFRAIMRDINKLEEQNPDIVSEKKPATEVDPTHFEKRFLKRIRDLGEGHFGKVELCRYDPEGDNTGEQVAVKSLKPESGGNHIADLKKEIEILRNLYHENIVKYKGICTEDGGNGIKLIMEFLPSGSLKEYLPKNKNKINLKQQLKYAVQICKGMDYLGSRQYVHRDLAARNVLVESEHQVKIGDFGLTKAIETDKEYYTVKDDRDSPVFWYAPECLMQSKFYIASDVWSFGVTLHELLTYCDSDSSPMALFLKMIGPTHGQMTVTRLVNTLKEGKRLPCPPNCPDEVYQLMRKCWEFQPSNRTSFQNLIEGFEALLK
UniProt P53667: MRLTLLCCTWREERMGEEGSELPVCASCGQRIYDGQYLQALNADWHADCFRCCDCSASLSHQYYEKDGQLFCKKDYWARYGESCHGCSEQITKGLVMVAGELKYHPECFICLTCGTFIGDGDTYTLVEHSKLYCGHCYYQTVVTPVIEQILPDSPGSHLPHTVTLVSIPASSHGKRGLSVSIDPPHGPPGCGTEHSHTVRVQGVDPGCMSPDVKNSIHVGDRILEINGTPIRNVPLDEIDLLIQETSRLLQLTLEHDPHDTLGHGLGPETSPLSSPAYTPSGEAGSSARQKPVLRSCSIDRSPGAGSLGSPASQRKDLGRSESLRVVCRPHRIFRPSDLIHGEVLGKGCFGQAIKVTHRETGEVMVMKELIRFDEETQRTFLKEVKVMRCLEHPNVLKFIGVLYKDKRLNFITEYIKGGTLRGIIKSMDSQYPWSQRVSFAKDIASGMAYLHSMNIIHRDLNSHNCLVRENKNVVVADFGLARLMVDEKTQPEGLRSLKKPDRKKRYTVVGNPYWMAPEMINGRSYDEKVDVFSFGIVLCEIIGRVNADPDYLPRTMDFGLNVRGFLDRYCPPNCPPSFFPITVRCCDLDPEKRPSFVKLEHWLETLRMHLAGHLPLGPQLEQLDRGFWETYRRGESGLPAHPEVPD
UniProt Q8IWU2: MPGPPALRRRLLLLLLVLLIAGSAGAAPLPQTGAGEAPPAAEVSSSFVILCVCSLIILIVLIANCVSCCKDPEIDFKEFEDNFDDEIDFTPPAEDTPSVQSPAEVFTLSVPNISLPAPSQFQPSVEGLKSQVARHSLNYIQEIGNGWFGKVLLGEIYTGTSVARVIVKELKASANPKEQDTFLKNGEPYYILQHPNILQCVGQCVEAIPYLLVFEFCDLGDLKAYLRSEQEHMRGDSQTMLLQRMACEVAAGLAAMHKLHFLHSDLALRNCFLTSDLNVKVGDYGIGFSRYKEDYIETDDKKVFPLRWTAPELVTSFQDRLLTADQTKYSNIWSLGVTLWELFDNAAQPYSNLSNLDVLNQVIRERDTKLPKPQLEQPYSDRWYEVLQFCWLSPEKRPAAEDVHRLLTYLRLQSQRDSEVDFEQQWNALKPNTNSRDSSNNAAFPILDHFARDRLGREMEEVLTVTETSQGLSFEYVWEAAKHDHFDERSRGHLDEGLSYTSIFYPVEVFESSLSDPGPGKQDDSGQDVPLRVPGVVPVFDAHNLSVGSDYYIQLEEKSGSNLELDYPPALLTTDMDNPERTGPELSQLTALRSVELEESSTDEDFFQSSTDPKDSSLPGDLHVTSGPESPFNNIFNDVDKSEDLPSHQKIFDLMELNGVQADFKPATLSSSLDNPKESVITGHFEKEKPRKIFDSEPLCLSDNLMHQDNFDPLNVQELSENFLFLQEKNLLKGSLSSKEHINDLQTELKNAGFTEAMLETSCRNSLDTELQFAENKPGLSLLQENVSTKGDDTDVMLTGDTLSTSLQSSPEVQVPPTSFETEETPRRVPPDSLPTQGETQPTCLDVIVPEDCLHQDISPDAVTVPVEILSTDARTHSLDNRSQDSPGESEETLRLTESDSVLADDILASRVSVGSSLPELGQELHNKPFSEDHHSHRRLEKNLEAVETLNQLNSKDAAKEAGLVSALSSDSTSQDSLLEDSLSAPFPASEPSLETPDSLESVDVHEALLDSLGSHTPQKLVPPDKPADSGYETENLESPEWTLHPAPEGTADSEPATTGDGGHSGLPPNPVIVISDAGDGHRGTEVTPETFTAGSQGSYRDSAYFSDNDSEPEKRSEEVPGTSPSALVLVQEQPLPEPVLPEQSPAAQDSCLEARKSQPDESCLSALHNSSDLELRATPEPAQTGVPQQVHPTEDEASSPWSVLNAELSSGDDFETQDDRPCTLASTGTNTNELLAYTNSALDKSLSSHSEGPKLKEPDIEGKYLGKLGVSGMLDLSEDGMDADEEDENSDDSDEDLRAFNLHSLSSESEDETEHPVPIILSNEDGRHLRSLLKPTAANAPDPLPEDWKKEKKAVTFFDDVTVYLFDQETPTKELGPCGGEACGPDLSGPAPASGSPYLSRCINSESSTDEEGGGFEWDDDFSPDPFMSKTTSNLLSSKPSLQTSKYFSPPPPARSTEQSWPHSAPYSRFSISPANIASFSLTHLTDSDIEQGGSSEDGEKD
UniProt P07948: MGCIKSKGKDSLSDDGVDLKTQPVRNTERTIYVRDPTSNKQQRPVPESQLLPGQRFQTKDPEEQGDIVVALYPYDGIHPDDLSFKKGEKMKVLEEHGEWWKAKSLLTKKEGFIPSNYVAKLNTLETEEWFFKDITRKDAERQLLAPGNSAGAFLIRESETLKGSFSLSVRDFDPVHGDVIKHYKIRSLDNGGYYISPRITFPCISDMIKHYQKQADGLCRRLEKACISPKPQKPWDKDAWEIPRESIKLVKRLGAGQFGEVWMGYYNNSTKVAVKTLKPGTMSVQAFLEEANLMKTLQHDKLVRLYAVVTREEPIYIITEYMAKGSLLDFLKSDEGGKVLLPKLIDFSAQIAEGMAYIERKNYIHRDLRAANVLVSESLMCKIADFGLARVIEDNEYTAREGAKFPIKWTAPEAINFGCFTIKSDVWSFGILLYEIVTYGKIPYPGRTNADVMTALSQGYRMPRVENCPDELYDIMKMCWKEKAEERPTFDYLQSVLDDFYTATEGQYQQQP
UniProt P28482, whole entry: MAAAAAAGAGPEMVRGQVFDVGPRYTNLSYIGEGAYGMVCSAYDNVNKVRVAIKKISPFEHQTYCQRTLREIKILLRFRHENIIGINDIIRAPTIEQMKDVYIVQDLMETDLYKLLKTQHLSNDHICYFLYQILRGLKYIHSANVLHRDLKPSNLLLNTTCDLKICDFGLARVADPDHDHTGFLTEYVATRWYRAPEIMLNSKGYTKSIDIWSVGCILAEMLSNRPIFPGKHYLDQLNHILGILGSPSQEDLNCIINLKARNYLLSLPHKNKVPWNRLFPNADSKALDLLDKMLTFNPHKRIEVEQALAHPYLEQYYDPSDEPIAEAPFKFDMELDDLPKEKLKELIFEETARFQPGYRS
UniProt P49137, whole entry, looked up: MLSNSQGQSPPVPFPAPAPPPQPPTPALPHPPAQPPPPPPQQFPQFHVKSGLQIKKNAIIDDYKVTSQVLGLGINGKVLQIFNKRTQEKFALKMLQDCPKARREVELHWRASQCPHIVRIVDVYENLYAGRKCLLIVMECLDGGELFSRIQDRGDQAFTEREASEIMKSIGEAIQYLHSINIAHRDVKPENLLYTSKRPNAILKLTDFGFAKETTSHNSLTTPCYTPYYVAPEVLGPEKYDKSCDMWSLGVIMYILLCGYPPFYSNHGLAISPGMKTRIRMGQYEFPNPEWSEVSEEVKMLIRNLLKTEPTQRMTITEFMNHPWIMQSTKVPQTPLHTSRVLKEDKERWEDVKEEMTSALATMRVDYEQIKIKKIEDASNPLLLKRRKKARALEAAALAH
UniProt O96013: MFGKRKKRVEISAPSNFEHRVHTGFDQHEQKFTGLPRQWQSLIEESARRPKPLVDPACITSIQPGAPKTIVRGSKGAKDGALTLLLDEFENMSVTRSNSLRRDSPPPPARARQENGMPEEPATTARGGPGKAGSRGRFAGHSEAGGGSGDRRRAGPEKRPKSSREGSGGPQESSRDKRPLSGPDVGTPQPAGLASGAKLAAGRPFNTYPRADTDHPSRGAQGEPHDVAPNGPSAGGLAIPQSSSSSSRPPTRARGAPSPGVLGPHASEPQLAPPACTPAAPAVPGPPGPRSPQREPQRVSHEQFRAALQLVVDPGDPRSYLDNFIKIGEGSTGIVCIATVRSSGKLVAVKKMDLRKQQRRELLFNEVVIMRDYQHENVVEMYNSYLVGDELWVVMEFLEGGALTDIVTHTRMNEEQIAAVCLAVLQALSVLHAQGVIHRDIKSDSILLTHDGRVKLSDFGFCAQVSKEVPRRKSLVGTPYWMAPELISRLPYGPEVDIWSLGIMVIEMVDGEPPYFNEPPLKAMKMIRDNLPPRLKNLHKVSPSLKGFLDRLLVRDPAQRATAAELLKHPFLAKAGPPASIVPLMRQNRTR
UniProt Q96KB5: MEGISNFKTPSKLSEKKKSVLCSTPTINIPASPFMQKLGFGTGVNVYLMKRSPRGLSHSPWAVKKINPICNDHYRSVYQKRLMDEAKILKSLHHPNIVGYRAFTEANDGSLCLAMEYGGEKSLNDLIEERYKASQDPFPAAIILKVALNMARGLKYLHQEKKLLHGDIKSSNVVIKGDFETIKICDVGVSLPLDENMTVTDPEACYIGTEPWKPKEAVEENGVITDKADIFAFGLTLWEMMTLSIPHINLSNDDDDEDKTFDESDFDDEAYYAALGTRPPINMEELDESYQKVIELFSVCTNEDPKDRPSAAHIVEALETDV
UniProt P09619, whole entry: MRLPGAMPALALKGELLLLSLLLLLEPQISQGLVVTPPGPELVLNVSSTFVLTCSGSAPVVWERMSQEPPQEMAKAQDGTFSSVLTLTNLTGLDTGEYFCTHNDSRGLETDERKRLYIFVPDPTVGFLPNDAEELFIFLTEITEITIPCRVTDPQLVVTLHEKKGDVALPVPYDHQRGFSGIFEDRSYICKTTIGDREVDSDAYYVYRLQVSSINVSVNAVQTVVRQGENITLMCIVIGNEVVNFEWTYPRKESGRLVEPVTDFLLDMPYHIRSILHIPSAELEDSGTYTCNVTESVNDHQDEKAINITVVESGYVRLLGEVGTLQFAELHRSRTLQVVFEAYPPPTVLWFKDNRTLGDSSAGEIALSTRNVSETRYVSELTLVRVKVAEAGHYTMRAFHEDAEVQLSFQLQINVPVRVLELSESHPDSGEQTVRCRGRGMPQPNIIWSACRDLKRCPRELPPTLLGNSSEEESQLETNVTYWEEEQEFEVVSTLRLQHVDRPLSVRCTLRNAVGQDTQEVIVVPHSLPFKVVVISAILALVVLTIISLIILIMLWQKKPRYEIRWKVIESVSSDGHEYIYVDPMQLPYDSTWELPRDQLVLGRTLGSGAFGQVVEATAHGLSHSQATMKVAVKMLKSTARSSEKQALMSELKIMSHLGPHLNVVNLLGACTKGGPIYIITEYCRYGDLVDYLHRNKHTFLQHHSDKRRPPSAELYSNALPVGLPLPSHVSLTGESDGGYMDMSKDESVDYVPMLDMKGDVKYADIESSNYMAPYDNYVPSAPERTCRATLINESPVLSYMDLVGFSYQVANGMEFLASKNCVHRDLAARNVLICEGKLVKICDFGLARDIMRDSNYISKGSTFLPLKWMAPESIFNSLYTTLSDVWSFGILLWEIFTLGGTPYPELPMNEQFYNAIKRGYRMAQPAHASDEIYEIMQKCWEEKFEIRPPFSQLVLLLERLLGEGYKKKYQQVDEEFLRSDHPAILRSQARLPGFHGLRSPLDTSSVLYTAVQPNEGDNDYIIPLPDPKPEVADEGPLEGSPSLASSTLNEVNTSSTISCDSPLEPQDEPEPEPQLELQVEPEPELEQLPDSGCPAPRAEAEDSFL

Experiments:
Test in all cases: kinase-Nluc reporter destabilization hit call (1 = scored as downregulated) (binary); higher = compound decreases kinase abundance
Conditions in all cases: K562; 2-18 h
[1] = biological target: IRAK3 (UniProt Q9Y616)
[2] = biological target: JAK1 (UniProt P23458)
[3] = biological target: LCK (UniProt P06239)
[4] = biological target: LIMK1 (UniProt P53667)
[5] = biological target: LIMK2 (UniProt P53671)
[6] = biological target: LMTK2 (UniProt Q8IWU2)
[7] = biological target: LYN (UniProt P07948)
[8] = biological target: MAP2K1 (UniProt Q02750)
[9] = biological target: MAP2K2 (UniProt P36507)
[10] = biological target: MAP4K2 (UniProt Q12851)
[11] = biological target: MAPK1 (UniProt P28482)
[12] = biological target: MAPK4 (UniProt P31152)
[13] = biological target: MAPKAPK2 (UniProt P49137)
[14] = biological target: MKNK1 (UniProt Q9BUB5)
[15] = biological target: NTRK2 (UniProt Q16620)
[16] = biological target: NTRK3 (UniProt Q16288)
[17] = biological target: PAK4 (UniProt O96013)
[18] = biological target: PBK (UniProt Q96KB5)
[19] = biological target: PDGFRB (UniProt P09619)
[20] = biological target: PDK1 (UniProt Q15118)

Measured: kinase-Nluc reporter destabilization hit call

O=C(Nc1nc2ccccc2[nH]1)c1cccc(-n2cccc2)c1 (10 µM)
inactive: [1] 0 | [2] 0 | [3] 0 | [4] 0 | [5] 0 | [6] 0 | [7] 0 | [8] 0 | [9] 0 | [10] 0 | [11] 0 | [12] 0 | [13] 0 | [14] 0 | [15] 0 | [16] 0 | [17] 0 | [18] 0 | [19] 0 | [20] 0

Nc1ncnc2c1c(-c1ccc(Oc3ccccc3)cc1)nn2C1CCCNC1 (racemic) (2.5 µM)
inactive: [1] 0 | [2] 0 | [3] 0 | [4] 0 | [5] 0 | [6] 0 | [7] 0 | [8] 0 | [9] 0 | [10] 0 | [11] 0 | [12] 0 | [13] 0 | [14] 0 | [15] 0 | [16] 0 | [17] 0 | [18] 0 | [19] 0 | [20] 0

O=[N+]([O-])c1cc(C(F)(F)F)cc([N+](=O)[O-])c1NNC(=S)Nc1ccc(F)cc1 (10 µM)
inactive: [1] 0 | [2] 0 | [3] 0 | [4] 0 | [5] 0 | [6] 0 | [7] 0 | [8] 0 | [9] 0 | [10] 0 | [11] 0 | [12] 0 | [13] 0 | [14] 0 | [15] 0 | [16] 0 | [17] 0 | [18] 0 | [19] 0 | [20] 0

O=C(Nc1ccc2[nH]nc(-c3ccncc3)c2c1)[C@@H]1CCN(CC(=O)N2CCN(c3ccc(-c4ncccn4)cc3)CC2)C1 (2.5 µM)
inactive: [1] 0 | [2] 0 | [3] 0 | [4] 0 | [5] 0 | [6] 0 | [7] 0 | [8] 0 | [9] 0 | [10] 0 | [11] 0 | [12] 0 | [13] 0 | [14] 0 | [15] 0 | [16] 0 | [17] 0 | [18] 0 | [19] 0 | [20] 0

CCN1CCN(Cc2ccc(Nc3ncc(F)c(-c4cc(F)c5nc(CO)n(C(C)C)c5c4)n3)nc2)CC1 [Abemaciclib metabolite M20] (2 µM)
inactive: [1] 0 | [2] 0 | [3] 0 | [4] 0 | [5] 0 | [6] 0 | [7] 0 | [8] 0 | [9] 0 | [10] 0 | [11] 0 | [12] 0 | [13] 0 | [14] 0 | [15] 0 | [16] 0 | [17] 0 | [18] 0 | [19] 0 | [20] 0

CS(=O)(=O)c1ccc(-c2noc(C(F)(F)F)c2-c2ccccc2)cc1 (10 µM)
inactive: [1] 0 | [2] 0 | [3] 0 | [4] 0 | [5] 0 | [6] 0 | [7] 0 | [8] 0 | [9] 0 | [10] 0 | [11] 0 | [12] 0 | [13] 0 | [14] 0 | [15] 0 | [16] 0 | [17] 0 | [18] 0 | [19] 0 | [20] 0

O=C(NCCCNC(=O)Nc1cccc(C2=NCCN2)c1)Nc1cccc(C2=NCCN2)c1 [p32 Inhibitor M36] (10 µM)
inactive: [1] 0 | [2] 0 | [3] 0 | [4] 0 | [5] 0 | [6] 0 | [7] 0 | [8] 0 | [9] 0 | [10] 0 | [11] 0 | [12] 0 | [13] 0 | [14] 0 | [15] 0 | [16] 0 | [17] 0 | [18] 0 | [19] 0 | [20] 0

CCn1c(C(=O)N(C2CC2)C2CC2)cc2c3c(ncn3C)c(Nc3cc(C)n(C)n3)nc21 (10 µM)
inactive: [1] 0 | [2] 0 | [3] 0 | [4] 0 | [5] 0 | [6] 0 | [7] 0 | [8] 0 | [9] 0 | [10] 0 | [11] 0 | [12] 0 | [13] 0 | [14] 0 | [15] 0 | [16] 0 | [17] 0 | [18] 0 | [19] 0 | [20] 0

CNc1nc(Nc2cnn(C3CCN(C4COC4)CC3F)c2Cl)ncc1C(F)(F)F (stereo not given) (10 µM)
inactive: [1] 0 | [2] 0 | [3] 0 | [4] 0 | [5] 0 | [6] 0 | [7] 0 | [8] 0 | [9] 0 | [10] 0 | [11] 0 | [12] 0 | [13] 0 | [14] 0 | [15] 0 | [16] 0 | [17] 0 | [18] 0 | [19] 0 | [20] 0

CC(C)CN(CC(=O)N1CCN(CC(OCc2ccc3ccccc3c2)c2ccc(Cl)cc2Cl)CC1)CC(C)C (stereo not given) [LYN-1604 (dihydrochloride)] (2.5 µM)
inactive: [1] 0 | [2] 0 | [3] 0 | [4] 0 | [5] 0 | [6] 0 | [7] 0 | [8] 0 | [9] 0 | [10] 0 | [11] 0 | [12] 0 | [13] 0 | [14] 0 | [15] 0 | [16] 0 | [17] 0 | [18] 0 | [19] 0 | [20] 0

COc1cc2c[n+](C)c3c4cc5c(cc4ccc3c2cc1OC)OCO5 [Nitidine (chloride)] (2 µM)
inactive: [1] 0 | [2] 0 | [3] 0 | [4] 0 | [5] 0 | [6] 0 | [7] 0 | [8] 0 | [9] 0 | [10] 0 | [11] 0 | [12] 0 | [13] 0 | [14] 0 | [15] 0 | [16] 0 | [17] 0 | [18] 0 | [19] 0 | [20] 0

C[C@@H]1O[C@@H](O[C@H]2[C@H](Oc3cc(O)c4c(=O)cc(-c5ccc(O)cc5)oc4c3)O[C@H](CO)[C@@H](O)[C@@H]2O)[C@H](O)[C@H](O)[C@H]1O [Rhoifolin] (10 µM)
inactive: [1] 0 | [2] 0 | [3] 0 | [4] 0 | [5] 0 | [6] 0 | [7] 0 | [8] 0 | [9] 0 | [10] 0 | [11] 0 | [12] 0 | [13] 0 | [14] 0 | [15] 0 | [16] 0 | [17] 0 | [18] 0 | [19] 0 | [20] 0

C[C@@]1(O)CCC[C@H]1n1c(=O)c(C(F)F)cc2cnc(NC3CCN(S(C)(=O)=O)CC3)nc21 (2.5 µM)
inactive: [1] 0 | [2] 0 | [3] 0 | [4] 0 | [5] 0 | [6] 0 | [7] 0 | [8] 0 | [9] 0 | [10] 0 | [11] 0 | [12] 0 | [13] 0 | [14] 0 | [15] 0 | [16] 0 | [17] 0 | [18] 0 | [19] 0 | [20] 0

CCOc1cc(C(=O)N2CCC(N3CCN(C)CC3)CC2)ccc1Nc1ncc2c(n1)N(C1CCCC1)c1ccccc1C(=O)N2C (10 µM)
inactive: [1] 0 | [2] 0 | [3] 0 | [4] 0 | [5] 0 | [6] 0 | [7] 0 | [8] 0 | [9] 0 | [10] 0 | [11] 0 | [12] 0 | [13] 0 | [14] 0 | [15] 0 | [16] 0 | [17] 0 | [18] 0 | [19] 0 | [20] 0

Nc1ncnc2c1c(-c1ccc(Oc3ccccc3)cc1)nn2C1CCNCC1 [N-piperidine Ibrutinib (hydrochloride)] (10 µM)
inactive: [1] 0 | [2] 0 | [3] 0 | [4] 0 | [5] 0 | [6] 0 | [7] 0 | [8] 0 | [9] 0 | [10] 0 | [11] 0 | [12] 0 | [13] 0 | [14] 0 | [15] 0 | [16] 0 | [17] 0 | [18] 0 | [19] 0 | [20] 0

CN1CCN(c2ccc(C(=O)Nc3cc(-c4cccc(NS(=O)(=O)c5ccccc5)c4)[nH]n3)cc2)CC1 [BPR1J-097 Hydrochloride] (2.5 µM)
inactive: [1] 0 | [2] 0 | [3] 0 | [4] 0 | [5] 0 | [6] 0 | [7] 0 | [8] 0 | [9] 0 | [10] 0 | [11] 0 | [12] 0 | [13] 0 | [14] 0 | [15] 0 | [16] 0 | [17] 0 | [18] 0 | [19] 0 | [20] 0

O=C(NCCO)c1ccc2c(c1)nc(Nc1cccc(Cl)c1)c1ccncc12 [CK2 inhibitor 2] (10 µM)
inactive: [1] 0 | [2] 0 | [3] 0 | [4] 0 | [5] 0 | [6] 0 | [7] 0 | [8] 0 | [9] 0 | [10] 0 | [11] 0 | [12] 0 | [13] 0 | [14] 0 | [15] 0 | [16] 0 | [17] 0 | [18] 0 | [19] 0 | [20] 0

Random excerpt: 2 compounds from above
C[C@@]1(O)CCC[C@H]1n1c(=O)c(C(F)F)cc2cnc(NC3CCN(S(C)(=O)=O)CC3)nc21 (2.5 µM)
inactive: [1] 0 | [2] 0 | [3] 0 | [4] 0 | [5] 0 | [6] 0 | [7] 0 | [8] 0 | [9] 0 | [10] 0 | [11] 0 | [12] 0 | [13] 0 | [14] 0 | [15] 0 | [16] 0 | [17] 0 | [18] 0 | [19] 0 | [20] 0

CCOc1cc(C(=O)N2CCC(N3CCN(C)CC3)CC2)ccc1Nc1ncc2c(n1)N(C1CCCC1)c1ccccc1C(=O)N2C (10 µM)
inactive: [1] 0 | [2] 0 | [3] 0 | [4] 0 | [5] 0 | [6] 0 | [7] 0 | [8] 0 | [9] 0 | [10] 0 | [11] 0 | [12] 0 | [13] 0 | [14] 0 | [15] 0 | [16] 0 | [17] 0 | [18] 0 | [19] 0 | [20] 0
